Data as given in PubChem BioAssay AID1224826 (NIAID, 2016).

Screen: 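Genes that change LPS-induced Tnf promoter activity in mouse macrophages when knocked down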 (primary screen)
System: RAW264.7 G9 macrophages from mouse bearing reporters for p65 (GFP) and the Tnf promoter (mCherry)
Knock-down reagent: siRNA pool against mouse genes, 100 nM
Duration: 16 h of LPS stimulation, after 2 days of siRNA transfection
Challenge: bacterial lipopolysaccharide (Salmonella minnesota R595), 10 ng/ml
Measured: 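Nuclear mCherry signal of the Tnf promoter reporter measured by imaging after background removal, scaled to each plate median and turned into robust z-scores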
Direction: Tnf reporter robust z-score: higher = stronger Tnf promoter reporter signal after LPS
Active means: 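Called active when robust z-score is at most -1.3, matching the median of the Tlr4 knock-down control, or over 3; control wells and wells with under 50 cells never active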
Calls: active = Tnf reporter clearly lowered or raised; inactive = no clear change in Tnf reporter
Here is a random part of about 17,000 deposited reagents. Of all reagents, about 1,110 (6.6%) are marked active. 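Active means lowered or raised reporter signal; replicate intensities are raw and not normalised per plate.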 Unmarked entries are inactive. Not all columns of the deposit are shown.

Knock-down of Kcnf1 came out at: Tnf reporter robust z-score 0.29; fewer than 50 cells in well enough cells in well.
Against Dlx2 the deposit lists Tnf reporter robust z-score 0.08; fewer than 50 cells in well enough cells in well.
Against Ptges3, the entry reads Tnf reporter robust z-score -0.23; fewer than 50 cells in well enough cells in well.
Knock-down of Nrf1 resulted in: Tnf reporter robust z-score -0.16; fewer than 50 cells in well enough cells in well.
After knock-down of Abcb11, the record shows Tnf reporter robust z-score 1.97; fewer than 50 cells in well enough cells in well.
Or1n2 gave Tnf reporter robust z-score -0.56; fewer than 50 cells in well enough cells in well.
After knock-down of Prdx2 the results were Tnf reporter robust z-score -1.62 (active); fewer than 50 cells in well enough cells in well.
Becn1 scored Tnf reporter robust z-score -0.8; fewer than 50 cells in well enough cells in well.
With knock-down of Fank1, the record shows Tnf reporter robust z-score 1.06; fewer than 50 cells in well enough cells in well.
Knock-down of Zfp641 came out at: Tnf reporter robust z-score -0.86; fewer than 50 cells in well enough cells in well.
Depletion of Hax1 resulted in: Tnf reporter robust z-score -0.26; fewer than 50 cells in well enough cells in well.
Depletion of Rpp40 resulted in: Tnf reporter robust z-score -1.27; fewer than 50 cells in well enough cells in well.
For Rcc1, the entry reads Tnf reporter robust z-score -0.26; fewer than 50 cells in well enough cells in well.
Silencing of Bfsp2 resulted in: Tnf reporter robust z-score 0.29; fewer than 50 cells in well enough cells in well.

Records above whose target name starts with R or r (2):
Rpp40 — Tnf reporter robust z-score: -1.27; fewer than 50 cells in well: enough cells in well
Rcc1 — Tnf reporter robust z-score: -0.26; fewer than 50 cells in well: enough cells in well
